PubChem BioAssay AID1159578 | Peter MacCallum Cancer Centre | 2015

Test: 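siRNA pools altering how lymphatic endothelial cells close a scratch wound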 (primary screen)
System: human lymphatic endothelial cells
Reagents: siRNA pool against human genes, 40 nM
Timing: 48 h after transfection
Measurement: 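Cells stained with dye and imaged after a scratch; covered wound area and nuclei counted, duplicates averaged, migration set against mock wells and turned into a robust z-score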
Direction: migration robust z-score: higher = faster migration into the scratch; nuclei per well: higher = more cells in the well
Rule for the call: 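Migration changed when robust z exceeds 2 or falls below -2 and mean nuclei number is at least 3300; otherwise not called changed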
Meaning of the calls: active = migration changed; inactive = no migration change, or too few cells
Shown is one part, drawn at random, of about 18,000 reagents tested. Of all reagents, about 1,030 (5.7%) are marked active. 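Inactive calls also include pools with fewer than 3300 nuclei, whose migration was not assessed.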 Raw values vary from plate to plate and are shown uncorrected. Not all columns of the deposit are shown.

gene knocked down	migration robust z-score	nuclei per well, duplicate mean	activity call
ATRN (attractin)	0.53	6646	inactive
ONECUT1 (one cut homeobox 1)	1.53	7188	inactive
PAX1 (paired box 1)	-1.02	5088	inactive
NPY1R (neuropeptide Y receptor Y1)	0.31	6201	inactive
DMRTC1B (DMRT like family C1B)	1.41	6182	inactive
RNPEPL1 (arginyl aminopeptidase like 1)	0.44	5026	inactive
PPP4R4 (protein phosphatase 4 regulatory subunit 4)	0.5	4384	inactive
LMOD3 (leiomodin 3)	0.65	5749	inactive
BRI3BP (BRI3 binding protein)	0.8	7176	inactive
PSMB3 (proteasome 20S subunit beta 3)	-0.42	4840	inactive
CERS5 (ceramide synthase 5)	-0.5	4274	inactive
DENND2A (DENN domain containing 2A)	0.97	7544	inactive
DOP1A (DOP1 leucine zipper like protein A)	0.36	5978	inactive
NOL4 (nucleolar protein 4)	0.94	6146	inactive
RC3H2 (ring finger and CCCH-type domains 2)	-0.52	5590	inactive
PTPRJ (protein tyrosine phosphatase receptor type J)	1.01	5012	inactive
MDH1B (malate dehydrogenase 1B)	-2.08	2989	inactive
TTC36 (tetratricopeptide repeat domain 36)	0.09	5273	inactive
PRR15L (proline rich 15 like)	0.96	5648	inactive
STYX (serine/threonine/tyrosine interacting protein)	0.78	5272	inactive
PDLIM3 (PDZ and LIM domain 3)	-0.08	5766	inactive
ZNF497 (zinc finger protein 497)	-1.35	4454	inactive
RAI14 (retinoic acid induced 14)	-1.15	4456	inactive
CNIH2 (cornichon family AMPA receptor auxiliary protein 2)	-0.11	6266	inactive

Continued, starting with the last 4 of the part before.
gene knocked down	migration robust z-score	nuclei per well, duplicate mean	activity call
PDLIM3 (PDZ and LIM domain 3)	-0.08	5766	inactive
ZNF497 (zinc finger protein 497)	-1.35	4454	inactive
RAI14 (retinoic acid induced 14)	-1.15	4456	inactive
CNIH2 (cornichon family AMPA receptor auxiliary protein 2)	-0.11	6266	inactive
NDN (necdin, MAGE family member)	-0.82	5744	inactive
DCC (DCC netrin 1 receptor)	-0.44	5650	inactive
ERLIN1 (ER lipid raft associated 1)	2.26	7158	active
AMT (aminomethyltransferase)	-0.9	7622	inactive
HMGB3 (high mobility group box 3)	-0.19	4834	inactive
AGBL1 (AGBL carboxypeptidase 1)	1.26	5445	inactive
DNAJC17 (DnaJ heat shock protein family (Hsp40) member C17)	-0.54	5010	inactive
LYZ (lysozyme)	1.12	3758	inactive
MICOS10	-0.3	3558	inactive
COL5A1 (collagen type V alpha 1 chain)	0.87	5364	inactive
CTBP1 (C-terminal binding protein 1)	-1.45	4887	inactive
GPC4 (glypican 4)	-1.14	5966	inactive
WDR53 (WD repeat domain 53)	-1.12	5894	inactive
KCNQ1 (potassium voltage-gated channel subfamily Q member 1)	-0.42	5717	inactive
USP32 (ubiquitin specific peptidase 32)	0	5605	inactive
MTMR6 (myotubularin related protein 6)	0.24	4476	inactive
PCDHA2 (protocadherin alpha 2)	0.18	5522	inactive
NDRG3 (NDRG family member 3)	-0.16	5754	inactive
SACK1E (scaffolding CK1 anchoring protein E)	-2.46	3590	active
ATP5F1E (ATP synthase F1 subunit epsilon)	-0.7	5760	inactive
SOX14 (SRY-box transcription factor 14)	1.19	7054	inactive
LZIC (leucine zipper and CTNNBIP1 domain containing)	0.16	6244	inactive
CCN6 (cellular communication network factor 6)	-0.73	6066	inactive
MTUS2 (microtubule associated scaffold protein 2)	1.32	5560	inactive
TAF4 (TATA-box binding protein associated factor 4)	-0.18	5624	inactive
MOB4 (MOB family member 4, phocein)	0.39	5157	inactive
KRT86 (keratin 86)	-1.4	6300	inactive
HOXB4 (homeobox B4)	0.4	6828	inactive
FRMD6 (FERM domain containing 6)	0.98	7380	inactive
ZNF343 (zinc finger protein 343)	0.52	4894	inactive
TFAP2E (transcription factor AP-2 epsilon)	-1.92	5644	inactive
KRT17 (keratin 17)	-1.27	3287	inactive
UNC80 (unc-80 subunit of NALCN channel complex)	-1.06	5012	inactive
